PubChem BioAssay AID1671195 – Yale University | 2021
Test: 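Knockdowns that increase or decrease uptake of fluorescent LDL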 (primary screen). Cell system: human Huh7 hepatoma cells. Reagent: siRNA pool against human genes, 18 nM. Timing: about 2 to 2.5 days of knockdown, then 8 h LDL uptake. Challenge: DiI-labelled LDL at 30 µg/ml for 8 h, in lipoprotein-deficient serum medium. Measured: 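Fluorescent LDL signal imaged in cells, scaled to the plate median, robust z-score for each replicate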. Direction: robust z-score: higher = more LDL uptake after knockdown. Rule for the call: 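a gene counts as active if at least two replicate z-scores exceed ±2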.
The deposit covers about 22,000 reagents; below is a part drawn at random. About 1,510 of them (6.9%) count as active. 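Active includes knockdowns raising or lowering LDL uptake; positive z-scores mean more uptake, negative mean less.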 Unmarked entries are inactive. The numbers tell different reagents against one gene apart.

{"gene symbol": "CHM (CHM Rab escort protein)", "reagent": 1, "robust z-score, replicate 1": -0.327, "robust z-score, replicate 2": -0.252, "robust z-score, replicate 3": -0.432}
{"gene symbol": "KCTD5 (potassium channel tetramerization domain containing 5)", "reagent": 1, "robust z-score, replicate 1": 0.667, "robust z-score, replicate 2": 0.572, "robust z-score, replicate 3": 1.82}
{"gene symbol": "BTBD10 (BTB domain containing 10)", "reagent": 1, "robust z-score, replicate 1": -1.11, "robust z-score, replicate 2": -0.107, "robust z-score, replicate 3": -0.795}
{"gene symbol": "TOM1 (target of myb1 membrane trafficking protein)", "reagent": 1, "robust z-score, replicate 1": -0.287, "robust z-score, replicate 2": -0.0952, "robust z-score, replicate 3": 0.00439}
{"gene symbol": "HTR5A (5-hydroxytryptamine receptor 5A)", "reagent": 1, "robust z-score, replicate 1": "3.09 (active)", "robust z-score, replicate 2": 1.45, "robust z-score, replicate 3": 2.28}
{"gene symbol": "SOX17 (SRY-box transcription factor 17)", "reagent": 1, "robust z-score, replicate 1": -0.643, "robust z-score, replicate 2": -0.687, "robust z-score, replicate 3": -0.564}
{"gene symbol": "NPR3 (natriuretic peptide receptor 3)", "reagent": 1, "robust z-score, replicate 1": 0.781, "robust z-score, replicate 2": -0.511, "robust z-score, replicate 3": -0.153}
{"gene symbol": "NPR3 (natriuretic peptide receptor 3)", "reagent": 2, "robust z-score, replicate 1": -1.11, "robust z-score, replicate 2": -0.551, "robust z-score, replicate 3": -0.738}
{"gene symbol": "UQCR10 (ubiquinol-cytochrome c reductase, complex III subunit X)", "reagent": 1, "robust z-score, replicate 1": -0.678, "robust z-score, replicate 2": -0.568, "robust z-score, replicate 3": 0.0629}
{"gene symbol": "DSCR4 (Down syndrome critical region 4)", "reagent": 1, "robust z-score, replicate 1": -1.85, "robust z-score, replicate 2": -1.37, "robust z-score, replicate 3": 0.783}

An excerpt from above, reduced to “robust z-score, replicate 1”.
HTR5A (5-hydroxytryptamine receptor 5A): 3.09 (active)
SOX17 (SRY-box transcription factor 17): -0.643
NPR3 (natriuretic peptide receptor 3) #1: 0.781
NPR3 (natriuretic peptide receptor 3) #2: -1.11

Additional results:
{"gene symbol": "CATSPERD (catsper channel auxiliary subunit delta)", "reagent": 1, "robust z-score, replicate 1": -0.421, "robust z-score, replicate 2": -0.215, "robust z-score, replicate 3": -0.36}
{"gene symbol": "C1orf105 (chromosome 1 open reading frame 105)", "reagent": 1, "robust z-score, replicate 1": -0.585, "robust z-score, replicate 2": -1.83, "robust z-score, replicate 3": -1.44}
{"gene symbol": "CKB (creatine kinase B)", "reagent": 1, "robust z-score, replicate 1": -0.846, "robust z-score, replicate 2": 0.187, "robust z-score, replicate 3": -0.158}
{"gene symbol": "STAT5B (signal transducer and activator of transcription 5B)", "reagent": 1, "robust z-score, replicate 1": 0.0604, "robust z-score, replicate 2": -0.0477, "robust z-score, replicate 3": -0.306}
{"gene symbol": "PTPN11 (protein tyrosine phosphatase non-receptor type 11)", "reagent": 1, "robust z-score, replicate 1": 0.606, "robust z-score, replicate 2": 0.117, "robust z-score, replicate 3": -0.0408}
{"gene symbol": "PLP2 (proteolipid protein 2)", "reagent": 1, "robust z-score, replicate 1": -1.11, "robust z-score, replicate 2": -1.01, "robust z-score, replicate 3": -0.542}
{"gene symbol": "TSPAN9 (tetraspanin 9)", "reagent": 1, "robust z-score, replicate 1": -0.387, "robust z-score, replicate 2": -0.698, "robust z-score, replicate 3": -0.932}
{"gene symbol": "TRERF1 (transcriptional regulating factor 1)", "reagent": 1, "robust z-score, replicate 1": 1.51, "robust z-score, replicate 2": 1.38, "robust z-score, replicate 3": 1.02}
{"gene symbol": "PPP1R9B (protein phosphatase 1 regulatory subunit 9B)", "reagent": 1, "robust z-score, replicate 1": 0.0849, "robust z-score, replicate 2": -1, "robust z-score, replicate 3": 0.145}
{"gene symbol": "IRAK2 (interleukin 1 receptor associated kinase 2)", "reagent": 1, "robust z-score, replicate 1": -0.855, "robust z-score, replicate 2": -1.21, "robust z-score, replicate 3": -0.795}
{"gene symbol": "LOC221140 (retired record)", "reagent": 1, "robust z-score, replicate 1": "3.57 (active)", "robust z-score, replicate 2": 2.64, "robust z-score, replicate 3": 3.31}
{"gene symbol": "IQCN (IQ motif containing N)", "reagent": 1, "robust z-score, replicate 1": -0.15, "robust z-score, replicate 2": -0.156, "robust z-score, replicate 3": -0.358}
{"gene symbol": "LOC389814 (retired record)", "reagent": 1, "robust z-score, replicate 1": 0.628, "robust z-score, replicate 2": 0.53, "robust z-score, replicate 3": 0.493}
{"gene symbol": "LOC440002 (retired record)", "reagent": 1, "robust z-score, replicate 1": 0.337, "robust z-score, replicate 2": 0.149, "robust z-score, replicate 3": 0.556}
